Experimental data published in paper PMC12037725.
Results are given in words; binding and its absence hold for the method and conditions named. Binding seen in cells or lysates may run through a third protein. Some binding calls cover weakened binding; strength is not graded here. Sequences can lack the tags named with a protein.

What was measured:
[1] = molecular target: T1, BTS (BRUTUS), nYFP fusion for BiFC (Arabidopsis thaliana) (UniProt Q8LPQ5); test: split reporter; BiFC with nYFP and cYFP fusions, transiently expressed in N. benthamiana leaves for 48 h (also Arabidopsis protoplasts); confocal microscopy
T1 sequence: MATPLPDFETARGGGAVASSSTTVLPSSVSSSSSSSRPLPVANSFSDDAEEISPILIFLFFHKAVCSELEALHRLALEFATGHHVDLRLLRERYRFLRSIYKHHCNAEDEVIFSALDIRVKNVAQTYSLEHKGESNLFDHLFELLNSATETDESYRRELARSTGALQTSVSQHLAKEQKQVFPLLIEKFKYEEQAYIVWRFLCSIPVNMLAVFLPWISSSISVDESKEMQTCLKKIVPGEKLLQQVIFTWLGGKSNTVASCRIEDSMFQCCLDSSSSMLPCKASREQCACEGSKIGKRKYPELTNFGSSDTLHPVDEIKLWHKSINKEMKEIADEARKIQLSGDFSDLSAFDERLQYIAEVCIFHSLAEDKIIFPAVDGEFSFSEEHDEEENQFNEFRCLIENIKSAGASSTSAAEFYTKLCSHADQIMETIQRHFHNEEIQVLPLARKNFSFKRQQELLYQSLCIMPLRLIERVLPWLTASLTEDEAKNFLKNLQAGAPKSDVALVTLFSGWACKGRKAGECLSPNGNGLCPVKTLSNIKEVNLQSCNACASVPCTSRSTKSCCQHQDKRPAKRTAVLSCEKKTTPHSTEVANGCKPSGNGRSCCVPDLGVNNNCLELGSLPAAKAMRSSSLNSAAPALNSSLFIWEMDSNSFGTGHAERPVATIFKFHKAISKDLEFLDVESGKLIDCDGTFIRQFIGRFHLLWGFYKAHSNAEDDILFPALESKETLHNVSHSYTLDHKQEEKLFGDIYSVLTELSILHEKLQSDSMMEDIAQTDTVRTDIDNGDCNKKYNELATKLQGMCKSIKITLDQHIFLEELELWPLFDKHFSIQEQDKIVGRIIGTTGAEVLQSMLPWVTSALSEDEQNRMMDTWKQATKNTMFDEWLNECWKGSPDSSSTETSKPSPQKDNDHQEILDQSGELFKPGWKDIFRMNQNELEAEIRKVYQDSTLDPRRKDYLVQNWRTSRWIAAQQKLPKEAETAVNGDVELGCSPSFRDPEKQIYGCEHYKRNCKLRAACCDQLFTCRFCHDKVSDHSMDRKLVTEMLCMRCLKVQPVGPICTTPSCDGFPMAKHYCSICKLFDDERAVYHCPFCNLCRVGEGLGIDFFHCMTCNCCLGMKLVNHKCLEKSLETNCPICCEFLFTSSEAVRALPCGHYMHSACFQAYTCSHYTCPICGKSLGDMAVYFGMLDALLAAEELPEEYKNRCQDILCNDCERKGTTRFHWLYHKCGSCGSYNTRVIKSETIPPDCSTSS

[2] = molecular target: T2, ILR3 (IAA-leucine resistant 3), nYFP fusion for BiFC (Arabidopsis thaliana) (UniProt Q9FH37); test: as above
T2 sequence: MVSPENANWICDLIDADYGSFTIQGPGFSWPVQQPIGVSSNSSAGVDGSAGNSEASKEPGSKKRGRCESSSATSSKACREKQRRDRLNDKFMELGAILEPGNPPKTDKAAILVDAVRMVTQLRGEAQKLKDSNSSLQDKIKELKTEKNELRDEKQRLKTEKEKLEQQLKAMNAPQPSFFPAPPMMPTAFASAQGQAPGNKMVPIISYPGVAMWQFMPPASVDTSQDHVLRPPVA

binding [1]: binds | binding [2]: binds
B1: RH24 (DEAD-box RNA helicase 24), cYFP fusion for BiFC (enzyme, UniProt O22907 1-760)
chain: MSNRKFGMEGFGINRQTSYSFERSQAPQRLYVPPSSRGGDNSEDADLDNIDYMENEEAEEDIEEGGSAAASGGEVDEIDPLDAFMEGIHQEMKSAPPPKPKEKLERYKDDDDDPVESYLKAKKDLGLTLAADALNAGYNSDEEVYAAAKAVDAGMLDYDSDDNPIVVDKRKIEPITALDHSSIDYEPINKDFYEELESISGMTEQETTDYRQRLGIRVSGFDVHRPVKTFEDCGFSSQIMSAIKKQAYEKPTAIQCQALPIVLSGRDVIGIAKTGSGKTAAFVLPMIVHIMDQPELQRDEGPIGVICAPTRELAHQIFLEAKKFSKAYGLRVSAVYGGMSKHEQFKELKAGCEIVVATPGRLIDMLKMKALTMMRASYLVLDEADRMFDLGFEPQVRSIVGQIRPDRQTLLFSATMPWKVEKLAREILSDPIRVTVGEVGMANEDITQVVNVIPSDAEKLPWLLEKLPGMIDEGDVLVFASKKATVDEIEAQLTLNSFKVAALHGDKDQASRMETLQKFKSGVHHVLIATDVAARGLDIKSLKTVVNYDIAKDMDMHVHRIGRTGRAGDRDGVAYTLVTQREARFAGELVNSLVAAGQNVPPELTDLAMKDGRFKSKRDGRKGGKKGRGGGGGNKGVRGVDFGLGIGFSSESSRTPSSKAAPSRSGAINSVRTGVMAQFKNSFVAATPSNPQNQAYPNKRPSLMGFVSGGTIGGDMGRTQSQAPPVAPTQNASSHNSSQNHSQSSENRPRERKRRSGWDN
